These are yes or no findings as the source states them, for the method shown. Binding calls can cover weak binding; strength is not graded here.
B1: YU574-D11 (scFv as screened) (scFv, V domains shown)
VH: QVQLVQSGGGLVQPGGSLRLSCAASGFTFSSYAMSWVRQAPGKGLEWVSAISGSGGSTYYADSVKGRFTISRDNSKNTLYLQMNSLRAEDTAVYYCAGGANGFDPWGQGTLVTVSS
VL: QSVLTQPPSVSGAPGQRVTISCTGSSSNIGAGYDVHWYQQLPGTAPKLLIYGNSNRPSGVPDRFSGSKSGTSASLAITGLQAEDEADYYCQSYDSSLSGLVFGGGTKLTVL
B2: YU577-E08 (scFv as screened) (scFv, V domains shown)
VH: QVQLVQSGAEVKKPGASVKVSCKASGYTFTSYYMHWVRQAPGQGLEWMGIINPSGGSTSYAQKFQGRVTMTRDTSTSTVYMELSSLRSEDTAVYYCATRQFDYWGQGTLVTVSS
VL: QSVLTQPPSVSAAPGQKVTISCSGSSSNIGNNYVSWYQQLPGTAPKLLIYENNKRPSGIPDRFSGSKSGTSATLGITGLQTGDEADYYCGTWDSSLSAAVFGGGTKVTVL

Molecular target: mouse Claudin 18.2 (mouse)
Assay: flow cytometry screening

| Binder | binding |
| --- | --- |
| B1 | binds |
| B2 | binds |

— US20250002576A1
